Results as given in PubChem BioAssay AID1794845 (National Center for Advancing Translational Sciences (NCATS), 2023).
Fewer than 10 of roughly 6,900 compounds were called active. Calls follow the shape of the dose curve; as a rule, active = well fitted curve in the direction sought with a large enough effect; inconclusive = small, poorly fitted or top-dose-only effect, or another doubt; inactive = no such curve, though single readings can be large or run the other way. The list shows a part of the results.
Also: % of control where 0% means no effect.

Sequences of proteins named here, by UniProt entry; tags and fusion partners are left off. A change or cut given only in a name is not applied to a line headed by its entry.
UniProt C7C422: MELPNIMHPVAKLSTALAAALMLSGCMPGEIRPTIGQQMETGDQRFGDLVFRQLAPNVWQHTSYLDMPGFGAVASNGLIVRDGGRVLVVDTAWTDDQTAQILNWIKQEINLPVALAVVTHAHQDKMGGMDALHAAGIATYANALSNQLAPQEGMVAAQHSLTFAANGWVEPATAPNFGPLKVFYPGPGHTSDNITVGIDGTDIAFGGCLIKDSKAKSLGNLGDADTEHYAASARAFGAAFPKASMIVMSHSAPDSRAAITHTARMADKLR

Each compound was assayed against Metallo-beta-lactamase type 2 (Klebsiella pneumoniae) (UniProt C7C422) (assay: qHTS to identify inhibitors of the New Delhi Metallo-beta-lactamase (NDM): primary screen against the NCATS Gemini Collection). Conditions: NDM-1 enzyme, meropenem hydrolysis, absorbance 300 nm; at 38.4 µM (top of the series) unless noted.
Procedure, shortened: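 NDM-1 at 2 nM final in 50 mM HEPES pH 7.0, 1 uM ZnSO4, 0.01% Tween20, preincubated >30 min with compound. Meropenem 50 uM final added; absorbance at 300 nm after 30 min.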
With COc1ccc(C)cc1NC(=O)C1CCCN(c2cn[nH]c(=O)c2)C1 (stereo not drawn) the activity % (negative = inhibition) was inactive: 19.9%.
CN1C[C@H]2CN(C(=O)c3cccnc3)CCN2C1=O was tested, and the activity % (negative = inhibition) was inactive: 0.46% [at 77.1 µM].
COc1cccc(-c2cc(-c3cccs3)nc3c(C)noc23)c1 was tested, and the activity % (negative = inhibition) was inactive: 8.45% [at 57.5 µM].
Cc1noc(C)c1-c1cc2c(cc(C)n2C)c(NCc2ccncc2)n1 was tested, and the activity % (negative = inhibition) was inactive: 11.6% [at 57.5 µM].
Cc1nc([C@@H]2CN(C(=O)c3sccc3C)C[C@H]2C(N)=O)n[nH]1 was tested, and the activity % (negative = inhibition) was inactive: 13.7%.
For COc1cccc(C(=O)N(C)C2CCc3ccccc32)c1 (stereo not drawn), the activity % (negative = inhibition) was inactive: -0.248% [at 57.5 µM].
With COc1ccc(C)cc1NC(=O)CCC[C@@H]1[C@H]2CCCN3CCC[C@@H](CN1C)[C@@H]23 the activity % (negative = inhibition) was inactive: 3.49%.
CC1CCCCN1CCCNC(=O)c1cc2c(s1)CN(C1CCCC1)C2 (stereo not drawn) was tested, and the activity % (negative = inhibition) was inactive: 10.1%.
For CC(C)Cc1cc(CN2CCC(CO)(CN3CCCC3)CC2)[nH]n1, the activity % (negative = inhibition) was inactive: 6.63%.
With CC[C@H](C)[C@H](N)C(=O)N1CCC(Cn2cc(C3CCCC3)nn2)CC1 the activity % (negative = inhibition) was inactive: 19.7%.
Cc1nnc2n1CCC(N(C)C(=O)NCCc1ccccc1)CC2 (stereo not drawn) was tested, and the activity % (negative = inhibition) was inactive: -3.02%.
With COc1ccc(C(=O)N2CCN(CCCn3nc4n(c3=O)CCCC4)CC2)cc1 the activity % (negative = inhibition) was inactive: 2.05%.
For CCn1cc(-c2ccc(Cl)cc2)cc1C(=O)N1CCN(c2ccccn2)CC1, the activity % (negative = inhibition) was inactive: -6.17%.
In the case of c1ccc(C2=NOC3(CCN(C4CCCCC4)CC3)C2)cc1, the activity % (negative = inhibition) is reported as inactive: -5.91%.
O=c1c(NS(=O)(=O)Cc2ccccc2)ccc2n1C[C@H]1C[C@@H]2CN(S(=O)(=O)c2ccccc2)C1 was tested, and the activity % (negative = inhibition) was inactive: 25.6%.
With Cn1cc(-c2cnc(Nc3cccnc3)c3c2CCO3)cn1 the activity % (negative = inhibition) was inactive: 16% [at 57.5 µM].
With O=C1CCN(C(=O)CCc2ccccc2)CCCC(CO)CCN1 (stereo not drawn) the activity % (negative = inhibition) was inactive: 13.2%.
In the case of CNC(=O)c1cc(C2CC2)nc2onc(C3CCCN3C(=O)Cc3ccccn3)c12 (stereo not drawn), the activity % (negative = inhibition) is reported as inactive: 66.2%.
COc1cccc2c1OCCCN(c1cc(C3CC(O)C3)nc(N)n1)C2 (stereo not drawn) was tested, and the activity % (negative = inhibition) was inactive: 1.85%.
In the case of Cc1ccc(C(=O)N2CCCC(n3cc(-c4nc(C5CC5)no4)nn3)C2)s1 (stereo not drawn), the activity % (negative = inhibition) is reported as inactive: 24.7%.
For CC(=O)N1CCN(C(=O)C[C@@H]2C[C@@H](C(C)C)[C@H](CNC(=O)c3cncnc3)C=C2C)CC1, the activity % (negative = inhibition) was inactive: 17.8%.
With Cc1oc2c(c1C(=O)N1CCN(C3CCCC3)CC1)CN(Cc1cccc(F)c1)CC2 the activity % (negative = inhibition) was inactive: 13.4%.
c1cncc(-c2ccnc(NCC(c3cccnc3)N3CCCCC3)n2)c1 (stereo not drawn) was tested, and the activity % (negative = inhibition) was inactive: -0.943%.
For Cc1ccc(-c2cn3c(n2)N(C(=O)C2CCCO2)CCC3)cc1 (stereo not drawn), the activity % (negative = inhibition) was inactive: 5.7%.
In the case of CS(=O)(=O)N1CC2(CCN(C3COC3)C2)Cc2ccccc21 (stereo not drawn), the activity % (negative = inhibition) is reported as inactive: -1.45%.
In the case of COC1CCC12CCN(Cc1ccc(C)o1)CC2 (stereo not drawn), the activity % (negative = inhibition) is reported as inactive: -1.31%.
In the case of COc1cc(C)c(-c2nc(CN3CCCC(CN)C3)c(C)o2)cc1C (stereo not drawn), the activity % (negative = inhibition) is reported as inactive: 0.794%.
With CC1(C(=O)N2CCOCC2)CN(Cc2ccccc2)Cc2ccc(Nc3ccccc3)nc21 (stereo not drawn) the activity % (negative = inhibition) was inactive: 0.551%.
With Cc1oc(C(C)C)cc1C(=O)N1CC[C@](C)(O)[C@@H](O)C1 the activity % (negative = inhibition) was inactive: 1.98%.
With Cn1cnc(CN2CCNc3cc(Nc4ccccc4)ncc3C2)c1 the activity % (negative = inhibition) was inactive: 6% [at 57.5 µM].
With CC(=O)Nc1ccc(CN2CCC[C@H]2c2nc(-c3ccc(N4CCC(C(N)=O)CC4)nc3)no2)cc1 the activity % (negative = inhibition) was inactive: 45.9%.
For CC(C)N1C(=O)C2(CCCC2)C1C(=O)N1CCc2ccccc21 (stereo not drawn), the activity % (negative = inhibition) was inactive: 0.375%.
In the case of O=C(NCc1ccc(OC(F)(F)F)cc1)c1cc(CN2CCOCC2)on1, the activity % (negative = inhibition) is reported as inactive: -9.04%.
In the case of Cc1cnc(C(=O)N2CC[C@H](CO)[C@H](NC(=O)C3CC3)C2)cn1, the activity % (negative = inhibition) is reported as inactive: 1.17%.
With CNC(=O)c1cccc(-c2cnc3[nH]cc(CC(=O)Nc4ccccc4Cl)c3c2)c1 the activity % (negative = inhibition) was inactive: 16.7% [at 57.5 µM].
With CCN(C1CCOCC1)C1CN(C(=O)C2CCCCC2)C1 the activity % (negative = inhibition) was inactive: 1.58%.
With Cc1cnc(C2CCC2)n1C1CCN(C(=O)CCC2CCCC2)CC1 the activity % (negative = inhibition) was inactive: -0.292%.
O=[S+]([O-])(c1ccccc1)N1CCCC2(CC(c3cccc(C(F)(F)F)c3)=NO2)C1 (stereo not drawn) was tested, and the activity % (negative = inhibition) was inactive: 0.407%.
In the case of CN1CCN(Cc2nnc(C3CCN(C(=O)C4(N)CC4)CC3)n2C)CC1, the activity % (negative = inhibition) is reported as inactive: 40.7%.
For CC(C)N1C[C@H](O)C[C@H]1c1nnc2n1CCN(C(=O)CCc1c[nH]c3ccccc13)CC2, the activity % (negative = inhibition) was inactive: 16.5%.
For O=c1cc(-c2cccnc2)oc2c(-c3cn[nH]c3)nccc12, the activity % (negative = inhibition) was inactive: 4.07% [at 77.1 µM].
For O=C(c1cccnc1)N1CCC12Cc1ccccc1NC2=O (stereo not drawn), the activity % (negative = inhibition) was inactive: 2.35% [at 57.5 µM].
With CCC(=O)N1CCCCCCNC(=O)[C@@H]2C[C@@H](C(=O)N3CCN(c4ccccn4)CC3)C[C@@H]21 the activity % (negative = inhibition) was inactive: 17.9%.
